From publication PMC10482915, “Hornerin mediates phosphorylation of the polo-box domain in Plk1 by Chk1 to induce death in mitosis” (Cell Death and Differentiation, 2023)
No constants are given. Whether binding was seen depends on the method and setting. In cells and extracts the contact can be indirect. A yes stands for co-enrichment or nearness to the bait. Other partners may have been found.

Sequences of proteins named here, by UniProt entry; tags and fusion partners are left off.
UniProt Q86YZ3: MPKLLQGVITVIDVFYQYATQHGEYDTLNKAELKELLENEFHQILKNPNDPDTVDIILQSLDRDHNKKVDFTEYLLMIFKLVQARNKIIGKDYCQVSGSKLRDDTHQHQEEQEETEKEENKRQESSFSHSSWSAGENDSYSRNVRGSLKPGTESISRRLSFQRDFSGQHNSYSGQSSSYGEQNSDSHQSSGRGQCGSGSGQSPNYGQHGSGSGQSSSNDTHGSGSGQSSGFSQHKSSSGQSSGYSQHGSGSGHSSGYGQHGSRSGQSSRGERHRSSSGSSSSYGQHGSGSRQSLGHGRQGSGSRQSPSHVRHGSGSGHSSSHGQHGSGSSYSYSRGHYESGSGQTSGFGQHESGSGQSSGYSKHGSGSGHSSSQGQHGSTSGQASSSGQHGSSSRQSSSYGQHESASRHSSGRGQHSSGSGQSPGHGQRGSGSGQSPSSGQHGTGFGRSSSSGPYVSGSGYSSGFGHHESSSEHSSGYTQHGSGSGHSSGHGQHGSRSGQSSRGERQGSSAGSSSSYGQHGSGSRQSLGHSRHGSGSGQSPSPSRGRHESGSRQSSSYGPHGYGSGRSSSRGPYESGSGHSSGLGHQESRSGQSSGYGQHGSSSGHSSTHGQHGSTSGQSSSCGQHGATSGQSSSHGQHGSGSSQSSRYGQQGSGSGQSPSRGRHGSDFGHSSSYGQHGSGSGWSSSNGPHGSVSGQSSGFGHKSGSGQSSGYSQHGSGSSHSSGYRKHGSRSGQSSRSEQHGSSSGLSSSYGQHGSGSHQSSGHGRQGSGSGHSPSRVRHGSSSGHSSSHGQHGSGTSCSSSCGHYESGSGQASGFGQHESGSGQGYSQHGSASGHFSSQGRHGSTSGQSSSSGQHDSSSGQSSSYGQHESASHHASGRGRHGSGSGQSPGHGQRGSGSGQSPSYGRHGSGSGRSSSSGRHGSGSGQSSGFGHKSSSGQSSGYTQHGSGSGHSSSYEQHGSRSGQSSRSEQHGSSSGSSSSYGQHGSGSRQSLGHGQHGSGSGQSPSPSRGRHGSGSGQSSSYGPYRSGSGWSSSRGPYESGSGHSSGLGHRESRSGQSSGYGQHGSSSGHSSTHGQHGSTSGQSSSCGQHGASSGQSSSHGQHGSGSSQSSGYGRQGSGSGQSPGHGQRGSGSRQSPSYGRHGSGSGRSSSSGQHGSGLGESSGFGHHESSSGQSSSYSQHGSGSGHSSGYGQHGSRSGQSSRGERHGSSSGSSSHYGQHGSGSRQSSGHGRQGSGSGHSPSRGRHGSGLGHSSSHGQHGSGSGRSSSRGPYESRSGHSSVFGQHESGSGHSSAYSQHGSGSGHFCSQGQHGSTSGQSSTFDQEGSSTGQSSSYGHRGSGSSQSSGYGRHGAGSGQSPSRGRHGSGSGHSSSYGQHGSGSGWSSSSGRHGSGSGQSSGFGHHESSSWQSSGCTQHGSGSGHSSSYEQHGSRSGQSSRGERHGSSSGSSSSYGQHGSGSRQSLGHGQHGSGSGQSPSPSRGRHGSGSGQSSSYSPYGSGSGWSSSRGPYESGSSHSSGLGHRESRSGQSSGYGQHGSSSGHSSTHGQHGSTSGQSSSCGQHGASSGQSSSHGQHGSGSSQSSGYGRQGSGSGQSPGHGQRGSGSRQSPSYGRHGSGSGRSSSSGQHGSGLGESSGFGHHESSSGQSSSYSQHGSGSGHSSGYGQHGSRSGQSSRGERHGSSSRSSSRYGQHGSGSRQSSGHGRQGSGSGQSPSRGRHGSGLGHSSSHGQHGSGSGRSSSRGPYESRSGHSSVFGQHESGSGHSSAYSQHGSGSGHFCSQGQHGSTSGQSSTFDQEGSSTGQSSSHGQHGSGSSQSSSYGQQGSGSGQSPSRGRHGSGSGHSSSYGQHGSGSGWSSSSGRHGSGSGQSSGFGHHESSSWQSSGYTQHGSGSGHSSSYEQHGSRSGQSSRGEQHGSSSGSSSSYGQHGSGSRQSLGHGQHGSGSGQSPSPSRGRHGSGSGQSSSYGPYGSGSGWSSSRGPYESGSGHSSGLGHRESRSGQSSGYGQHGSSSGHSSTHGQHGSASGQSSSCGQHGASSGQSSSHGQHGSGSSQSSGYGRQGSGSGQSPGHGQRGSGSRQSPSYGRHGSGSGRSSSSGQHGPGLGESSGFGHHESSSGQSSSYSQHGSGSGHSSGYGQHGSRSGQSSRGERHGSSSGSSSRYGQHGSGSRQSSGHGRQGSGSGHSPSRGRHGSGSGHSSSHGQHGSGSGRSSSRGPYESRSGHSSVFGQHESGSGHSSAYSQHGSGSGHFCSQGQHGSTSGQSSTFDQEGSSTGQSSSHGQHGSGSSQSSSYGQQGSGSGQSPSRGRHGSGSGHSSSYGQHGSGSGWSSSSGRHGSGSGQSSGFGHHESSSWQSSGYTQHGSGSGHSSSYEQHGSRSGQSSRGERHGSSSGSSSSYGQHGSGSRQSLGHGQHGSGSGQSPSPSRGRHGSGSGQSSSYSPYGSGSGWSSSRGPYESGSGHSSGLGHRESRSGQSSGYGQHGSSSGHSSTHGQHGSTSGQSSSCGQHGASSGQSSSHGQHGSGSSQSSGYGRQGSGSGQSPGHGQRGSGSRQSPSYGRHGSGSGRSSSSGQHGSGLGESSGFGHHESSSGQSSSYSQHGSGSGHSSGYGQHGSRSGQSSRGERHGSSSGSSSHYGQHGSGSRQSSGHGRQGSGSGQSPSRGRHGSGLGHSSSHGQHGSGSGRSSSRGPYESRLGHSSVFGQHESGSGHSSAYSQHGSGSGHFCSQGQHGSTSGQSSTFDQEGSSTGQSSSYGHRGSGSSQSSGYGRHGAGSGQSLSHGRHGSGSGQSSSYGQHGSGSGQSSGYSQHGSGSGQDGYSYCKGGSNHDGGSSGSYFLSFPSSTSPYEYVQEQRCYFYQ

Biological target: GFP-S-Plk1 (UniProt P53350)
Test: affinity purification with mass spectrometry; tandem purification of GFP-S-Plk1 from HeLa S3 lysate: anti-GFP beads, TEV release, S-protein agarose, urea elution; mass spectrometry

binding: binds
Substance: hornerin, endogenous (from UniProt Q86YZ3 1-2850)
